Test results as given in PMC4871590.
These are yes or no findings as the source states them, for the method shown. In cells and extracts the contact can be indirect. A result given as binding can be weak or reduced; the word gives no strength. Tags and fused reporters may be left off the sequences shown.

B1: GFP-B’β (Arabidopsis PP2A B’β subunit) (protein, UniProt O04376 1-499)
chain: MFKKIMKGGHRKPSKSEANEPSSYGIGLPDNRSGPGSNVVVSHASRGALVNSSPSPVTATPPPPPLGSVEPLPLFRDVPVSERQTLFLRKLQNCCFLFDFTDTIKNARDKEIKRQTLLELVDFIQSGSSKISESCQEEMIKMISVNIFRSLPPASHENTGQEPADPEEEEPYLEPSWPHLQLVYELLLRYVVSTDTDTKVAKRYIDHSFVLKLLDLFDSEDPREREYLKTILHRIYGKFMVHRPFIRKAINNIFYRFIYETERHSGIGELLEILGSIINGFALPMKEEHKLFLIRVLIPLHKPKPIVVYHQQLSYCIVQFVEKDYKLADTVIRGLLKYWPVTNCSKENLFLGELEEVLEATQPVEFQRCMVPLFQQIGRCLTSSHFQVAERALFLWNNEHIVGLIAQNRSVILPIIYPTLEKNIQSHWNQAVHGLTTNIKKMFMEMDPELFEECQRQYEEKQAKSKEVEEQRQYTWKRLAEAAAERDGGGGEEDHMITS
B2: GFP-B’ξ (Arabidopsis PP2A B’ξ subunit) (protein, UniProt Q9SV41 1-497)
chain: MFNKIIKLGQKKFNKSDQHHQDNNNNNNNTSTNTVVRGSRTTTPAPSSVSNGESQTTAQSPSQTPNHPMFTTTPILEVLPLLKDVSSSDRPLLFMKKAHMCSCHCDFSDTLIMPREKEIKRQTLLELVDFLHSSSGKVNETMQSELIRMVSANIFRCLPPAYHENTGAPPEGNDPEEEEPYLEPWWPHLQLVYELLLRYVVSSEIEPKTAKKFINHTFVSRLLDLFDSEDPREREYLKTVLHRIYGKFIFHRPFIRCSIYNIFYKFLYETERCIGIGELLEILGSVINGFTVPMREEHRLYLVKAILPLHKSKGISIYHQQLAYCVTQFVEKDYKLADTVIRGLLKFWPLTNCQKEVLFLGELEEVLDATEPSEFQQCVVPLFTQIGKCLNSAHFQVAERALFLWNNEHIVGLIAQNKDVIFPIIFEALERNMKGHWNQAVHGLSENVRRMFLEMDTELFEECEKQYLENEAKACELLEQRELTWKRLEEAASLAAN
B3: GFP-B’η (Arabidopsis PP2A B’η subunit) (protein, UniProt Q9LU89 1-510)
chain: MWKQILSKLPNKKSSKHEHRGREHGGHSSSSSHTSGASTSKSTDNGAAKSHAKNASPAGKSAASDSGFKDGNLKSSGNNNNNNNNGVFTPYEALPSFKDVPNTEKQNLFIKKLNLCRVVFDFTDPTKNIKEKDIKRQTLLELVDYVNSPNGKFSEVGIQEVVRMVSANIFRTLNPQPRENKVIDALDLEEEEPSMDLAWPHLQLVYELFLRFVASPETDTKLAKRYIDQSFVLRLLDLFDSEDPRERDCLKTILHRIYGKFMVHRPFIRKSINNIFYRFVFETEKHNGIAEFLEILGSIINGFALPLKDEHKVFLVRVLIPLHKPKCLQMYHQQLSYCITQFVEKDCKLADTVIRGLLKYWPVTNSSKEVMFLNELEEVLEATQPPEFQRCMVPLFRQIARCLNSLHFQVAERALFLWNNNHIENLIMQNRKVILPIIFPALERNAQKHWNQAVHSLTLNVRKIFHDLDPELFKECLAKFKEDESKAAETEAKREATWKRLEELGVRKAS

biological target: AvrE1-N’-HA (aa 1–898) (Pseudomonas syringae pv. tomato DC3000); assay: co-IP; HA-IP: AvrE1-HA fragments pulled down with anti-HA agarose from lysates of N. benthamiana leaves co-expressing GFP fusions (48 h); co-precipitated GFP fusions detected with anti-GFP; lysis buffer 50 mM Tris-HCl pH 7.5, 150 mM NaCl, 1% Nonidet P40, 0.5% sodium deoxycholate, 5 mM DTT; 4°C

Binder	binding
B1	binds
B2	binds
B3	binds

biological target: AvrE1-C’-HA (aa 889–1795) (Pseudomonas syringae pv. tomato DC3000); assay: as above

Binder	binding
B1	binds
B2	binds
B3	no binding
